In all, about 33,000 sequences were measured (“E-score (-0.5 to 0.5)”: median about -8e-05, highest 2% from about 0.23 on). This is one part of the list.
molecular target: T1, Nrg2 (UniProt P38082); assay: PBM E-score (8-mer binding enrichment) (E-score (-0.5 to 0.5)); higher = stronger / more preferred TF binding; settings: protein concentration: 100 nM; construct: GST-full length
T1 sequence: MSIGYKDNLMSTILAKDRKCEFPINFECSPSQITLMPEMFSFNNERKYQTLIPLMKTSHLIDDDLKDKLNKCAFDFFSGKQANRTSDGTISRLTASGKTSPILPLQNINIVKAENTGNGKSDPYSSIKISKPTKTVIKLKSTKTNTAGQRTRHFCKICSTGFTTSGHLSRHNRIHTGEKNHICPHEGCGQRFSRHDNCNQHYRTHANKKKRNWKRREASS
Summary of the method: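 For each ungapped eight-base word taken together with its reverse complement, the Universal PBM Analysis Suite assigned an E-score. Binding data came from GST-tagged yeast transcription factors, applied at about 100-200 nM, on universal all-10-mer Agilent arrays made double-stranded by primer extension. Fluorescent anti-GST marked bound protein, and scans were normalised with masliner.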

First: CTTTAGAA
Second: ACGTAGGA
The “PBM E-score” value of the first is lower: -0.137 for the first, -0.0606 for the second.

Compared with ACGCTGTA, CTATAATC is higher in “PBM E-score” value: 0.00044 for the first, 0.0714 for the second.

Going from CTGCCGCA to GTCGTCGA, the “PBM E-score” value rises from -0.0926 to -0.0659.

Going from CACCCGAA to AATGCCGA, the “PBM E-score” value falls from 0.154 to 0.0135.

Going from AGCGCCGC to ACGAAATG, the “PBM E-score” value rises from 0.051 to 0.126.

First: GGCGAAAA
Second: AGCAGAGA
The “PBM E-score” value of the first is higher: 0.0852 for the first, -0.00062 for the second.

Compared with GAAGTCCA, CCATCGCG is higher in “PBM E-score” value: 0.0868 for the first, 0.096 for the second.

First: GCATTTAA
Second: CCGAGCAC
The “PBM E-score” value of the first is higher: 0.132 for the first, -0.0966 for the second.

First: AGAAGGCA
Second: ACGGTCTC
The “PBM E-score” value of the first is higher: -0.112 for the first, -0.153 for the second.

First: AGTACGCC
Second: GGGTAGTA
The “PBM E-score” value of the first is lower: -0.171 for the first, -0.045 for the second.

First: CACATCAG
Second: ATTAGTCG
The “PBM E-score” value of the first is lower: -0.0629 for the first, 0.143 for the second.

Compared with ACTCCCTA, CGGCTTAG is higher in “PBM E-score” value: -0.298 for the first, -0.149 for the second.

First: CCTAACAC
Second: GGCAAGCC
The “PBM E-score” value of the first is higher: 0.179 for the first, -0.226 for the second.

Compared with AAACTTCT, AATTTGTG is lower in “PBM E-score” value: 0.149 for the first, 0.139 for the second.

Compared with AAGGACAA, CTGGGACA is lower in “PBM E-score” value: 0.0644 for the first, -0.147 for the second.

Going from AACGCACT to CCGGCTAA, the “PBM E-score” value falls from 0.0421 to -0.0925.

Going from GTAGCGCA to GCGTATTA, the “PBM E-score” value falls from 0.103 to -0.0807.

First: TAGCGCAA
Second: CAGTGGGG
The “PBM E-score” value of the first is higher: 0.16 for the first, -0.117 for the second.

Going from GAGGAAAC to TAAATCGA, the “PBM E-score” value rises from 0.0161 to 0.151.

Compared with ACCAGGCC, CCCGCTAA is lower in “PBM E-score” value: 0.027 for the first, -0.0296 for the second.

Going from ACCTATAA to AACAGATA, the “PBM E-score” value rises from -0.112 to 0.00922.

Compared with ATCGAGTC, CTGCTGTC is lower in “PBM E-score” value: -0.0816 for the first, -0.0817 for the second.

Going from CACTAGTA to GACTTACA, the “PBM E-score” value falls from 0.103 to -0.171.

Compared with GCGGTGCC, GATGCCTA is higher in “PBM E-score” value: -0.113 for the first, -0.0949 for the second.

First: GATGCCAC
Second: GGTGTATA
The “PBM E-score” value of the first is higher: -0.11 for the first, -0.25 for the second.

Going from ACCTTAAC to AGTTTCGC, the “PBM E-score” value falls from 0.1 to 0.0289.

Compared with AACCGTCC, ATTAAGAG is higher in “PBM E-score” value: -0.138 for the first, -0.0764 for the second.

Going from ACCAGCCC to ATCCGACA, the “PBM E-score” value rises from -0.167 to -0.115.

Going from CGTGACAG to CACCACAC, the “PBM E-score” value rises from -0.0873 to 0.0854.

First: CAACATTG
Second: CCGAAGCA
The “PBM E-score” value of the first is higher: 0.0622 for the first, 0.0405 for the second.

Compared with AGCGCGGG, ATCTGCAC is lower in “PBM E-score” value: 0.13 for the first, -0.0166 for the second.

Compared with GCTGGATA, CATGTAGA is lower in “PBM E-score” value: 0.101 for the first, 0.0373 for the second.

Going from GACTTTCC to AGACGATG, the “PBM E-score” value rises from -0.161 to -0.0514.

Compared with CGCGGTGC, AAACAGTG is higher in “PBM E-score” value: 0.00961 for the first, 0.167 for the second.

Going from ATCCACAT to AGGGGAGG, the “PBM E-score” value falls from 0.0617 to 0.00427.

Going from CAACTTCG to AATATTTG, the “PBM E-score” value rises from 0.0959 to 0.185.

Going from AGCGTCCA to CTTCCTGA, the “PBM E-score” value rises from -0.0536 to 0.119.

Compared with ATACGGGA, CGATTGAC is higher in “PBM E-score” value: -0.00335 for the first, 0.175 for the second.

Compared with CCTATATA, ACCCGACA is lower in “PBM E-score” value: 0.0688 for the first, 0.065 for the second.

Going from ACGCCAGA to CAAGCTAA, the “PBM E-score” value rises from -0.102 to 0.0135.

Compared with AGACTCCG, CATATCAG is higher in “PBM E-score” value: -0.115 for the first, 0.0379 for the second.

Compared with GATTGCGA, AGATTCTG is lower in “PBM E-score” value: 0.108 for the first, -0.11 for the second.

Going from CGGTTGAC to CGTAAAGA, the “PBM E-score” value falls from -0.0889 to -0.119.

First: CTGCTAGA
Second: CAGACCCA
The “PBM E-score” value of the first is lower: -0.0728 for the first, -0.0149 for the second.

First: GCGTCCTA
Second: CCCGGCCG
The “PBM E-score” value of the first is lower: -0.162 for the first, -0.128 for the second.

First: CAAAGCCA
Second: GGGTACCC
The “PBM E-score” value of the first is higher: -0.0355 for the first, -0.139 for the second.

First: CATACATC
Second: CCCAGCAC
The “PBM E-score” value of the first is higher: 0.00658 for the first, -0.167 for the second.

First: AATACTGG
Second: AGTACCTG
The “PBM E-score” value of the first is higher: 0.137 for the first, -0.0106 for the second.

Compared with CCATTCTA, ACTTCGTG is higher in “PBM E-score” value: -0.087 for the first, 0.123 for the second.

First: AGCTACAT
Second: ACGCGGCT
The “PBM E-score” value of the first is higher: 0.0247 for the first, -0.152 for the second.

Going from TATCGTCA to CGAAAATC, the “PBM E-score” value rises from -0.0105 to 0.163.

Compared with CGAGATCA, CATTGCCA is lower in “PBM E-score” value: 0.22 for the first, -0.0171 for the second.

First: CCACTCCA
Second: CCGCGTGA
The “PBM E-score” value of the first is lower: -0.0999 for the first, 0.0878 for the second.

First: CTTCGGGA
Second: AGCCGACG
The “PBM E-score” value of the first is higher: -0.0162 for the first, -0.096 for the second.

Compared with TCAAGCAA, AAGCGATT is higher in “PBM E-score” value: -0.119 for the first, -0.0219 for the second.

Compared with GAATGGTC, ACAATGGT is lower in “PBM E-score” value: -0.0983 for the first, -0.136 for the second.

Going from CCATAGTC to ACCTGTAC, the “PBM E-score” value falls from -0.0356 to -0.153.

Going from ATTCCAGG to AACCCCAA, the “PBM E-score” value rises from 0.0983 to 0.147.

First: GATAAGTA
Second: CCCGTCCA
The “PBM E-score” value of the first is higher: -0.0181 for the first, -0.205 for the second.

Compared with AGACCTCG, CCCGCATC is lower in “PBM E-score” value: -0.0314 for the first, -0.122 for the second.

Compared with GATCCGCA, CCTGACAA is higher in “PBM E-score” value: -0.0105 for the first, 0.18 for the second.

First: CGAACGAC
Second: CCAGGGTC
The “PBM E-score” value of the first is lower: 0.107 for the first, 0.392 for the second.

First: AGGCTGTC
Second: TACGGCAA
The “PBM E-score” value of the first is lower: -0.0238 for the first, 0.215 for the second.

Compared with ATGGCTAC, CAAGCGTC is higher in “PBM E-score” value: -0.0815 for the first, 0.0678 for the second.

Going from AGGCGGGA to CATGCGGG, the “PBM E-score” value rises from -0.145 to 0.0834.

Going from GAGACATC to GACTACTA, the “PBM E-score” value rises from -0.0167 to 0.0184.

Going from CTATAAGC to AAGAAAAT, the “PBM E-score” value rises from -0.0947 to 0.0731.

First: CGCAATCA
Second: CAGGTACG
The “PBM E-score” value of the first is higher: 0.122 for the first, -0.192 for the second.

Going from GCTGCGTA to CAGGTGTA, the “PBM E-score” value falls from -0.0165 to -0.0459.

Going from GCGCGGAA to GAGACGCA, the “PBM E-score” value falls from 0.116 to -0.0416.

First: GTCCAATA
Second: GAAGGGCC
The “PBM E-score” value of the first is lower: 0.0483 for the first, 0.0555 for the second.

Going from CAGTGAAC to ACTTTCAA, the “PBM E-score” value falls from 0.248 to 0.137.

Going from GTAACCAA to GATAAGAC, the “PBM E-score” value falls from 0.0617 to -0.0464.

First: GACGTAAA
Second: ACACCGGA
The “PBM E-score” value of the first is higher: 0.0194 for the first, -0.0337 for the second.

First: GCCTGCGC
Second: ACGCAGTA
The “PBM E-score” value of the first is higher: -0.0715 for the first, -0.088 for the second.

First: CTCTGCTA
Second: CCGTGAGA
The “PBM E-score” value of the first is lower: -0.199 for the first, -0.188 for the second.

First: GGATGTCA
Second: ATGCTCAA
The “PBM E-score” value of the first is higher: 0.178 for the first, -0.0666 for the second.

Compared with ATCACTGG, CACGTTTC is lower in “PBM E-score” value: 0.0147 for the first, -0.125 for the second.

Going from ATCTTGCG to GGACACAA, the “PBM E-score” value rises from -0.0421 to 0.224.

Compared with CAGTCGCG, ATAGCGGG is lower in “PBM E-score” value: 0.0776 for the first, -0.0613 for the second.

First: CCTACCAC
Second: CATCATAG
The “PBM E-score” value of the first is lower: -0.157 for the first, 0.0749 for the second.

Compared with ATGGGAAC, ATTCCGAA is higher in “PBM E-score” value: 0.00554 for the first, 0.0901 for the second.

Compared with CCCTATCG, ACTTAGTC is lower in “PBM E-score” value: 0.0966 for the first, -0.0921 for the second.

Going from CACGGAAC to GCATCTAA, the “PBM E-score” value falls from 0.141 to 0.0997.

Going from CGTATAGA to AGAAAGGC, the “PBM E-score” value falls from -0.0185 to -0.0703.

Going from TCTAGCAA to CGTCCTTC, the “PBM E-score” value falls from 0.139 to -0.0462.
